These are yes or no findings as the source states them, for the method shown. In cells and extracts the contact can be indirect. Some binding calls cover weakened binding; strength is not graded here. Tags and fused reporters may be left off the sequences shown.
Target: T1, HA-IKKβ (UniProt O14920)
T1 sequence: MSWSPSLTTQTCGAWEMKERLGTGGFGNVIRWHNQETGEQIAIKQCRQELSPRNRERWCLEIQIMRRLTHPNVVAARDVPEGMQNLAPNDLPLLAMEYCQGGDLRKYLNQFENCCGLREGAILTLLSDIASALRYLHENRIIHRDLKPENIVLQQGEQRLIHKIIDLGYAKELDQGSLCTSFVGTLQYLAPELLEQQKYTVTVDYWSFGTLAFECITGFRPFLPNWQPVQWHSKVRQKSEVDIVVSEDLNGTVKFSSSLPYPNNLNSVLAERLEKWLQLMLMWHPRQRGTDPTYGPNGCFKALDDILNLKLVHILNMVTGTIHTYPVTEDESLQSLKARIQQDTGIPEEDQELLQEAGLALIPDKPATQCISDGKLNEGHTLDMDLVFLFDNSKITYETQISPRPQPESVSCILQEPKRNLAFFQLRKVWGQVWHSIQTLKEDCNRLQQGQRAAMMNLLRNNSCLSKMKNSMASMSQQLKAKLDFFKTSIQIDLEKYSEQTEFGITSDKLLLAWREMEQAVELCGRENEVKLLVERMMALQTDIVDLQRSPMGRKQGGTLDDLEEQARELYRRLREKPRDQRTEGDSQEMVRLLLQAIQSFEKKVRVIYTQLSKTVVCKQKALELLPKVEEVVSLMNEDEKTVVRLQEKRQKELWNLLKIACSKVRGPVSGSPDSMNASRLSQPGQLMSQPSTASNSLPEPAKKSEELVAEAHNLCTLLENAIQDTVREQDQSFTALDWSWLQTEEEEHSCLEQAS
Assay: co-IP

Sequences of proteins named here, by UniProt entry; tags and fusion partners are left off.
UniProt P19474: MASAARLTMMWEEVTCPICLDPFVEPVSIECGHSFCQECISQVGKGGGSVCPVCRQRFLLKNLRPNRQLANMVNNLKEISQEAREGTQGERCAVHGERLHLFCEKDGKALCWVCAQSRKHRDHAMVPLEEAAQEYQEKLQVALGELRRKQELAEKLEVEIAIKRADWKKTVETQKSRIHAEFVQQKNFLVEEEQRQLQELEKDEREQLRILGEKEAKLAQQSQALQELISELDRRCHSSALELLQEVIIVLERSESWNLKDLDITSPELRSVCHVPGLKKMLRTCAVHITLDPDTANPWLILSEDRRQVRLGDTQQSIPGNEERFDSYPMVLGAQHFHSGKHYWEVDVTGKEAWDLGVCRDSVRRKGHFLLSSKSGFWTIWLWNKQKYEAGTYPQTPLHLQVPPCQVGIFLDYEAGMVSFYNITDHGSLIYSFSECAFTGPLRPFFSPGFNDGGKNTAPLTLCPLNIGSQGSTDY

binding: binds
Substance: Flag-TRIM21 (E3 ubiquitin ligase TRIM21) (from UniProt P19474 1-475) (enzyme)

From PMC11209375
